Assay results from PMC2791867.
These are yes or no findings as the source states them, for the method shown. In cells and extracts the contact can be indirect. Binding can be weak; no strength is given. For some assays here: Tags and fused reporters may be left off the sequences shown.

Key:
[1] = biological target: T1, Flag-tagged FLRT3 expressed in Xenopus embryos (Xenopus) (UniProt Q70AK3); assay: co-IP; extracts of Xenopus embryos injected with FLRT3-Flag and RND1-HA RNA with or without FL-PAPC, M-PAPC or PAPC-TMC RNA; anti-Flag IP and Western blot
T1 sequence: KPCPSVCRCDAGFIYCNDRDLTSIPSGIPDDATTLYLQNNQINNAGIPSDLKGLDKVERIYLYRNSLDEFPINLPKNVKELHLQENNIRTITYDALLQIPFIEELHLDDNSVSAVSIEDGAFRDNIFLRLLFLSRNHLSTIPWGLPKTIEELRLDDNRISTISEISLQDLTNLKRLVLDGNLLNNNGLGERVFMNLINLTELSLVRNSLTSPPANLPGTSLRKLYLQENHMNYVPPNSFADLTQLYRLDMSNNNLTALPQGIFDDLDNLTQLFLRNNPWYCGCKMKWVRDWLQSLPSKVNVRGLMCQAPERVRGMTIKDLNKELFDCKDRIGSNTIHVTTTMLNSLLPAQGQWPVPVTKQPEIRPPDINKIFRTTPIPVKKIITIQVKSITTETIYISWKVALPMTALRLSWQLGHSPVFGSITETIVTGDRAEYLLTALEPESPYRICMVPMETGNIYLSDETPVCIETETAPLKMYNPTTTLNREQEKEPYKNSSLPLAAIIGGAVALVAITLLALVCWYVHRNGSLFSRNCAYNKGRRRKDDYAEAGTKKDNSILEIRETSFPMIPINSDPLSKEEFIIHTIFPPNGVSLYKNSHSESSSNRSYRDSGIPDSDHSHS

[2] = biological target: T2, FLRT3 expressed in Xenopus embryos (cross-linking experiment) (Xenopus) (UniProt Q70AK3); assay: cross-linking + co-IP; total membranes of stage 10.5 Xenopus embryos injected with PAPC and FLRT3 RNAs, crosslinked with 0.5 mM Sulfo-DST, dissolved in Ripa buffer, IP with preimmune, anti-PAPC or anti-FLRT3 IgG; Western blot
T2 sequence: T1 sequence

| Substance | binding [1] | binding [2] |
| --- | --- | --- |
| HA-tagged RND1 expressed in Xenopus embryos | binds |  |
| endogenous C-cadherin of Xenopus embryos |  | binds weakly |
